Data as given in patent US11427783B2, “Perfuming compositions” (Firmenich SA, priority 2016, dated 2022).

Assay: Odor threshold of perfuming compounds in air
[1] = Table 5, perfuming compounds having a green note
[2] = Table 8, perfuming compounds having a sweet note
[3] = Table 9, perfuming compounds having a gourmand note
[4] = perfuming compounds having a fruity note (Table 6)
[5] = Table 6, perfuming compounds having a fruity note
[6] = Table 10, perfuming compounds having a woody note

SMILES | Odor Threshold [1] [μg/l air] | Odor Threshold [4] [μg/l air] | other results
CCCCCC(=O)OCC [ETHYL HEXANOATE] | 9.11E−04 | 9.11E−04 | Odor Threshold (μg/l air) [2]: 9.11E−04 μg/l air; Odor Threshold (μg/l air) [3]: 9.11E−04 μg/l air
CC(=O)OCC=C(C)CCC=C(C)C (mixture of isomers) [GERANYL ACETATE (A) + NERYL ACETATE (B)] | 3.57E−02 | – | –
CC1(C)[C@@H]2CC[C@@]1(C)C(=O)C2 | – | 1.72E−01 | –
CC1=CC2CC(C=O)C1CC2C(C)C (stereo not shown) [8-ISOPROPYL-6-METHYL-BICYCLO[2.2.2]OCT-5-ENE-2-CARBALDEHYDE] | 7.11E−05 | – | –
CCCCCC#CC(=O)OC [METHYL 2-OCTYNOATE″, METHYL 2-OCTYNOATE] | 8.31E−04 | – | –
CC/C=C\CCCCC=O [(Z)-6-NONENAL] | 2.91E−05 | – | –
O=C(OCc1ccccc1)c1ccccc1 [BENZYL BENZOATE] | – | – | Odor Threshold (μg/l air) [5]: 3.67E−02 μg/l air
CCCCO [1-BUTANOL] | 8.70E−02 | – | Odor Threshold (μg/l air) [2]: 8.70E−02 μg/l air; Odor Threshold (μg/l air) [3]: 8.70E−02 μg/l air; Odor Threshold (μg/l air) [6]: 8.70E−02 μg/l air
COC(OC)C(C)c1ccccc1 (stereo not shown) [1,1-DIMETHOXY-2-PHENYLPROPANE] | 1.42E−02 | – | –
CCOC(=O)CC1(C)OCCO1 [ETHYL 2-METHYL-1,3-DIOXOLANE-2-ACETATE] | 1.62E−03 | 1.62E−03 | Odor Threshold (μg/l air) [2]: 1.62E−03 μg/l air; Odor Threshold (μg/l air) [3]: 1.62E−03 μg/l air
CC(=O)c1ccccc1 [1-phenylethanone] | – | – | Odor Threshold (μg/l air) [2]: 6.61E−03 μg/l air
CCCCC/C=C\CCC=O [(Z)-4-DECENAL] | 3.78E−05 | – | –
COc1cccc(OC)c1O [2,6-DIMETHOXYPHENOL] | – | – | Odor Threshold (μg/l air) [2]: 8.01E−06 μg/l air; Odor Threshold (μg/l air) [3]: 8.01E−06 μg/l air
CCCCCCCOC(C)=O [heptyl acetate] | – | 1.32E−01 | –
CCCCCCOC(C)=O [HEXYL ACETATE] | 1.32E−01 | 1.32E−01 | –
C=CC(C)=CCC=C(C)C | 2.57E−02 | 2.57E−02 | –
C[C@@H]1CC[C@@H](C(C)(C)S)C(=O)C1 [(1R,4R)-8-MERCAPTO-3-P-MENTHANONE] | 3.43E−05 | 3.43E−05 | –
CC/C=C(\C)C(O)CCCCC (racemic) [(+−)-(E)-4-METHYL-3-DECEN-5-OL] | 6.78E−04 | – | Odor Threshold (μg/l air) [5]: 6.78E−04 μg/l air
CCCCCCCCC=O [nonanal] | 8.14E−03 | – | –
CC/C=C\CCOC(=O)OC [(3Z)-hex-3-en-1-yl methyl carbonate] | 4.58E−02 | 4.58E−02 | –
CC(=O)OC1CCC2C(C)(C)CCCC2(C)C1 (stereo not shown) [5,5,8a-trimethyldecahydro-2-naphthalenyl acetate] | – | – | Odor Threshold (μg/l air) [6]: 4.19E−04 μg/l air
CCC(=O)O[C@H]1C[C@@H]2CC[C@@]1(C)C2(C)C | – | – | Odor Threshold (μg/l air) [6]: 4.55E−02 μg/l air
CCCCCC(C)=O [2-HEPTANONE] | – | 5.85E−02 | –
COCCc1ccccc1 [(2-METHOXYETHYL)BENZENE] | 6.32E−04 | – | –
COC(OC)C(C)(C)CC=C(C)C | – | – | Odor Threshold (μg/l air) [6]: 1.26E−02 μg/l air
CC(=O)OC(CC(C)C)CC(C)C [1-ISOBUTYL-3-METHYLBUTYL ACETATE] | 1.62E+00 | 1.62E+00 | –
COC(=O)C1C(C)=CCCC1(C)C (racemic) | 1.06E−02 | – | –
CCOC(=O)C1=C(C)C=CCC1(C)C | – | 4.40E−03 | –
CCCc1ccc(OC)cc1 [1-METHOXY-4-PROPYLBENZENE] | – | 5.37E−04 | –
CC(=O)OC/C=C(/C)CCC=C(C)C [(2Z)-3,7-dimethyl-2,6-octadien-1-yl acetate] | – | – | Odor Threshold (μg/l air) [5]: 6.02E−02 μg/l air
